According to the supplement of paper PMC12823440, “Inhibitors supercharge kinase turnover through native proteolytic circuits” (Nature, 2025):
Counter-ions that a name gives are not always drawn. The list shows a part of the results. Hit calls seldom repeat between salt and free forms of one compound.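 Kinases, fused to nanoluciferase, were expressed in K562 cells; luminescence was measured every 4 h from 2 to 18 h as percent of control (DMSO = 100%, positive control = 0%). A time point is decreased if signal falls significantly (2 sigma). Hits were called by the authors by a rule that is not shown; the count of time points alone does not decide it.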

Sequences of proteins named here, by UniProt entry; tags and fusion partners are left off. A change or cut given only in a name is not applied to a line headed by its entry.
UniProt P28482, whole entry: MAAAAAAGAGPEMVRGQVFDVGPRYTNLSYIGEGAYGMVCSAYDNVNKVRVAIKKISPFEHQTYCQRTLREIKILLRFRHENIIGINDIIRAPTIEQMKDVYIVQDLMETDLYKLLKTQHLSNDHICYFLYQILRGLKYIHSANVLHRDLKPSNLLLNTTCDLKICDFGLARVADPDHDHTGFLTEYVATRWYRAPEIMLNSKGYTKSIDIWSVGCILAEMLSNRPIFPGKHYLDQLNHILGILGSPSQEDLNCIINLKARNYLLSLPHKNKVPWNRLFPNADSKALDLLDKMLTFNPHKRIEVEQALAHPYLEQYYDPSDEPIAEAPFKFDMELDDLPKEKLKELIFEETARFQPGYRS
UniProt Q16620, whole entry, looked up: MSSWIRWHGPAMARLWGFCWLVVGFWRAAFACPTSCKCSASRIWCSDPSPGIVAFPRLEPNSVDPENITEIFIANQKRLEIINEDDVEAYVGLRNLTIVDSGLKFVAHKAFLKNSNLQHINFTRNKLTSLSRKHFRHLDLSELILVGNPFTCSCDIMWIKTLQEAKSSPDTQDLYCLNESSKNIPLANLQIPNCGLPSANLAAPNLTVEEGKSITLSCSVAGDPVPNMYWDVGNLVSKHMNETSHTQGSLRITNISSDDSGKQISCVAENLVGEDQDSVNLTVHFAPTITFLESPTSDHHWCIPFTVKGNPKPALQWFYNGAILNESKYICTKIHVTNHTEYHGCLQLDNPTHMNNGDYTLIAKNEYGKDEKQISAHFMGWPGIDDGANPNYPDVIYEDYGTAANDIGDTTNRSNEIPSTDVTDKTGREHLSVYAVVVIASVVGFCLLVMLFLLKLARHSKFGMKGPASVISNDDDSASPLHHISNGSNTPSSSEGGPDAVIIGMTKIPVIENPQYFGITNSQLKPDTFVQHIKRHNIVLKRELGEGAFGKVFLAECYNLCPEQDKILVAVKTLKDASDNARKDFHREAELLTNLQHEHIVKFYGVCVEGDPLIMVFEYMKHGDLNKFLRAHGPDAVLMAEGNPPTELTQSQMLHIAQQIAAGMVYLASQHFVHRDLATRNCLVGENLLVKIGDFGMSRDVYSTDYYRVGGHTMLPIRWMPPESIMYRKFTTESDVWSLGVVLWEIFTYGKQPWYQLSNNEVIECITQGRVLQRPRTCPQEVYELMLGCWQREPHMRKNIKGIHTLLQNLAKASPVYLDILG
UniProt P42356, whole entry, looked up: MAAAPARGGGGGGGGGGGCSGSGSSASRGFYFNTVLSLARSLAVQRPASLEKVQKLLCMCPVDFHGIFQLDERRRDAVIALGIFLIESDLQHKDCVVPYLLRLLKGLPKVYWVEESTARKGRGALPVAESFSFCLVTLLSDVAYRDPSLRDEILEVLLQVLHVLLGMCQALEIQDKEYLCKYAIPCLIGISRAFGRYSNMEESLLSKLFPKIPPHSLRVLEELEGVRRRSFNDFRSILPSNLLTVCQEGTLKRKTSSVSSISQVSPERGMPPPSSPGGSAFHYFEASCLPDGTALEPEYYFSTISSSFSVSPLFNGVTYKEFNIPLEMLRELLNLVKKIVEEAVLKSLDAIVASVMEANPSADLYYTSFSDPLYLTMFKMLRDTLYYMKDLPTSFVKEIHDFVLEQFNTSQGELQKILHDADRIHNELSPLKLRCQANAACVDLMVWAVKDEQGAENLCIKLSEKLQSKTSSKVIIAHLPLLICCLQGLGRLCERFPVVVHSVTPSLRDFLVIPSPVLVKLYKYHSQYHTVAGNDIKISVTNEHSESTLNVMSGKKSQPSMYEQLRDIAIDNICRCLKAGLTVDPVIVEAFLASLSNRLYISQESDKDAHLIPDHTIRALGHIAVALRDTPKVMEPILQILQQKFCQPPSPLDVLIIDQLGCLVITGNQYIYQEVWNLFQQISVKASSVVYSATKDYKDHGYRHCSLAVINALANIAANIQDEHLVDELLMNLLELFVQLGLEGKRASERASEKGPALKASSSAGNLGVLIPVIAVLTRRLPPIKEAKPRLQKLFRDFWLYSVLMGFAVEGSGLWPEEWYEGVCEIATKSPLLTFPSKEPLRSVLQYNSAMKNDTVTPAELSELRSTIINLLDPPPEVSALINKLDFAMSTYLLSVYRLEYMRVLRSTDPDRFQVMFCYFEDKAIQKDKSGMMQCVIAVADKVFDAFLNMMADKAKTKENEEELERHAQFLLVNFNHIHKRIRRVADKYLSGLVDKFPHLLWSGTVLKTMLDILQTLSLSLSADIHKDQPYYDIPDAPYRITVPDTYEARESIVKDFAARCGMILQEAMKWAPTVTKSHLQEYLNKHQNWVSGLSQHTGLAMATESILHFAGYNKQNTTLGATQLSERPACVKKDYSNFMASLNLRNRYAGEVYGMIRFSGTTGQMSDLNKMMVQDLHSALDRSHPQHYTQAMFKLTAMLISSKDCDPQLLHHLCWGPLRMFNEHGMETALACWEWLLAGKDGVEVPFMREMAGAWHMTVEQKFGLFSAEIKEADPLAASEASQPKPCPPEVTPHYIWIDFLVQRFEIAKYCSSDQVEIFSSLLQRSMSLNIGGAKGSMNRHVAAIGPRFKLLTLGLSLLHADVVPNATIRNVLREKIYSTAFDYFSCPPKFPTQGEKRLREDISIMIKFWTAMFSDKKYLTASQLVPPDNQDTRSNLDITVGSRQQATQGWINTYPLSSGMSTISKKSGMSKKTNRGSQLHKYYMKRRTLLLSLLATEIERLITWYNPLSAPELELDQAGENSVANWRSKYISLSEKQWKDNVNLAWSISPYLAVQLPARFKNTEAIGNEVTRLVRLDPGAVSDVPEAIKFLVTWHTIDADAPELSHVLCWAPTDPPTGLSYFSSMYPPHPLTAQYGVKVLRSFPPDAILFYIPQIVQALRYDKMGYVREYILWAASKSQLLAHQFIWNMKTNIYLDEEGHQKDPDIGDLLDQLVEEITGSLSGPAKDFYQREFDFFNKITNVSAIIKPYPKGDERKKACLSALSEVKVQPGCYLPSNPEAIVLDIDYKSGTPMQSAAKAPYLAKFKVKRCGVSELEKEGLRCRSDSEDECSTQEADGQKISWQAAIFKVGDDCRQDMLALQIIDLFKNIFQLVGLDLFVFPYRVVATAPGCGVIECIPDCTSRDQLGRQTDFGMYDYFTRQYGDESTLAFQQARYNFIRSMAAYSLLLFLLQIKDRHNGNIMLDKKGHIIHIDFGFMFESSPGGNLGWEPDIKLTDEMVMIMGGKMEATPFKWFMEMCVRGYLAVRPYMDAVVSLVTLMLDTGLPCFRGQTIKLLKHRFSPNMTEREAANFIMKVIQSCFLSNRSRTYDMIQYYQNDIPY
UniProt Q9UBF8: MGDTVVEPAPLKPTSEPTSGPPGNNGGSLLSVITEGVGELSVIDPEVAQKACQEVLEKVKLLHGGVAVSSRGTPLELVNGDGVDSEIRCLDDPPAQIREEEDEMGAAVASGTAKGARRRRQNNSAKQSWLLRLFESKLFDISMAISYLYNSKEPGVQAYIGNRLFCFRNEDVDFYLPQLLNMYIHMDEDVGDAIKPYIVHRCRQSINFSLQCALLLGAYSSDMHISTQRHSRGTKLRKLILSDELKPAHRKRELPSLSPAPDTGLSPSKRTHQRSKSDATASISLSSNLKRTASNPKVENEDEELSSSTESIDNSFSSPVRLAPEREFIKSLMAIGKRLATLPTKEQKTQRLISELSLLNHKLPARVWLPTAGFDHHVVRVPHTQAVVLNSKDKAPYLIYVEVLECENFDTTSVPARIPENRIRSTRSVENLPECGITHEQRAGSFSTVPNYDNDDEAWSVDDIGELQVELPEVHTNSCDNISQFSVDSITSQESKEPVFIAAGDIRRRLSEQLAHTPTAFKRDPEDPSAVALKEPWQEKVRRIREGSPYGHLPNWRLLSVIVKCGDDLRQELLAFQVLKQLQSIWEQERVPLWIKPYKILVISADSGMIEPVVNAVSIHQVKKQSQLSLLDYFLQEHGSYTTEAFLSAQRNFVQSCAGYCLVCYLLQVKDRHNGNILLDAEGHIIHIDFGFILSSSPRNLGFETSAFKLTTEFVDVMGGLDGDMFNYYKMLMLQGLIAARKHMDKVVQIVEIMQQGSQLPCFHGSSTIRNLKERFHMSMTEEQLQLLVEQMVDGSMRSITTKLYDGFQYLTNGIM
UniProt P53350, whole entry: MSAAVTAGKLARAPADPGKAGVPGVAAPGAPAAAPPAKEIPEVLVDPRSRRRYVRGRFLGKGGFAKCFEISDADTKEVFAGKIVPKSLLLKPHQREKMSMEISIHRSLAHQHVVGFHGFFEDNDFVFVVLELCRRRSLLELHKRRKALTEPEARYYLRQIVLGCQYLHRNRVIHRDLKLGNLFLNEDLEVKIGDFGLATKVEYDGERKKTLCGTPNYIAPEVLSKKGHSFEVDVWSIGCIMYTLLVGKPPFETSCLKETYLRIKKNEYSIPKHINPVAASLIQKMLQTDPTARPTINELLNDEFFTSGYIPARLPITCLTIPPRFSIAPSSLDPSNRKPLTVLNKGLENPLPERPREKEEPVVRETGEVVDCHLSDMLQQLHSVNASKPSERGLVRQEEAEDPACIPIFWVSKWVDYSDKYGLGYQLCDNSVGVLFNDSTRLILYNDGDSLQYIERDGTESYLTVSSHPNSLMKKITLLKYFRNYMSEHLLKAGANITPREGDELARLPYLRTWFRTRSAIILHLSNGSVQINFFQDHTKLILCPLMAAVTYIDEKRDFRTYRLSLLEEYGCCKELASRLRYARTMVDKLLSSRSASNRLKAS
UniProt Q13131: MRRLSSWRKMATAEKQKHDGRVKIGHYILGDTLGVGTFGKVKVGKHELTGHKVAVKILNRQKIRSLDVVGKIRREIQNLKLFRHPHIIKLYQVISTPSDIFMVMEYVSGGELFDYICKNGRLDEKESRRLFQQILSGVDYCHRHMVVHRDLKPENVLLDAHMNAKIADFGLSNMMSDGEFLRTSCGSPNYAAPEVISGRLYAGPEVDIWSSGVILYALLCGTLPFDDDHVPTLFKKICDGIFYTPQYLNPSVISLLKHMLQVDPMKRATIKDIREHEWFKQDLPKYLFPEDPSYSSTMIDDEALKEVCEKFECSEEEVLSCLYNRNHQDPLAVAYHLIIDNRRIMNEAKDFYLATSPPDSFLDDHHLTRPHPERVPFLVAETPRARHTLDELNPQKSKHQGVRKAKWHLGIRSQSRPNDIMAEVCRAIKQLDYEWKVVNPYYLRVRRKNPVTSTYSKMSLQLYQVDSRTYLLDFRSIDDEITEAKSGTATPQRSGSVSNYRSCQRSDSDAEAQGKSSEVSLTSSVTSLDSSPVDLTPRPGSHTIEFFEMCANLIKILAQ
UniProt Q05397, whole entry, looked up: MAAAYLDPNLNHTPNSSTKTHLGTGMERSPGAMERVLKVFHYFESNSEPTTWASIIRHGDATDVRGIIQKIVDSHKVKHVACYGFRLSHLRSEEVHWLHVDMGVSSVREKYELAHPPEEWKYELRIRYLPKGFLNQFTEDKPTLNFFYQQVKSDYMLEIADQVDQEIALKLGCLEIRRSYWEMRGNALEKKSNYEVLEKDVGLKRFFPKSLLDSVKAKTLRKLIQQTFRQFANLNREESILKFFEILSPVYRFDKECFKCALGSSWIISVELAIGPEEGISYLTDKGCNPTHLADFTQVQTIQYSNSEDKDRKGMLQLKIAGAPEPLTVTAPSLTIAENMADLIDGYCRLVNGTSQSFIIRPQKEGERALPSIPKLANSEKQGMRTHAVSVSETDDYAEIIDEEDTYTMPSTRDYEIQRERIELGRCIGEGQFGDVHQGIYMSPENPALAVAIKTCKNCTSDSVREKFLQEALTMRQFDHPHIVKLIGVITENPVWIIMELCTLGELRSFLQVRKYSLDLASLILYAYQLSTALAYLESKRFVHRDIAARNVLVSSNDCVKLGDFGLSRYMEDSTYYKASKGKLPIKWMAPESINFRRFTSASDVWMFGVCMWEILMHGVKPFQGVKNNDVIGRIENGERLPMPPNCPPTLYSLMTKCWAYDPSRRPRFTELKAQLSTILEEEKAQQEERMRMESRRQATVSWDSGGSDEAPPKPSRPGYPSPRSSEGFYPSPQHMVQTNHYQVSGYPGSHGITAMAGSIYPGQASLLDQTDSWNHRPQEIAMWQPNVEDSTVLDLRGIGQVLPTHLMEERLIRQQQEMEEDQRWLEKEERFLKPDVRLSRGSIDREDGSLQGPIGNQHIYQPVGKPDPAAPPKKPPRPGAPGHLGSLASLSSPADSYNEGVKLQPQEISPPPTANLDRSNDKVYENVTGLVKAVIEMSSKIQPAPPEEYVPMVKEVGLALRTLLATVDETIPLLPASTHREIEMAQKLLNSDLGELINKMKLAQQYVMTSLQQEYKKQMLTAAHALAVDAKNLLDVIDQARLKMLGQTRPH

How the values were obtained:
Assay in all cases: kinase-Nluc reporter destabilization hit call (1 = scored as downregulated) (binary); higher = compound decreases kinase abundance
Settings in all cases: K562, 2-18 h
[1] = molecular target: MAPK1 (UniProt P28482)
[2] = molecular target: MAPK4 (UniProt P31152)
[3] = molecular target: MAPKAPK2 (UniProt P49137)
[4] = molecular target: MKNK1 (UniProt Q9BUB5)
[5] = molecular target: NTRK2 (UniProt Q16620)
[6] = molecular target: NTRK3 (UniProt Q16288)
[7] = molecular target: PAK4 (UniProt O96013)
[8] = molecular target: PBK (UniProt Q96KB5)
[9] = molecular target: PDGFRB (UniProt P09619)
[10] = molecular target: PDK1 (UniProt Q15118)
[11] = molecular target: PDPK1 (UniProt O15530)
[12] = molecular target: PIK4CA (UniProt P42356)
[13] = molecular target: PIK4CB (UniProt Q9UBF8)
[14] = molecular target: PLK1 (UniProt P53350)
[15] = molecular target: PRKAA1 (UniProt Q13131)
[16] = molecular target: PRKCA (UniProt P17252)
[17] = molecular target: PTK2 (UniProt Q05397)
[18] = molecular target: PTK2B (UniProt Q14289)
[19] = molecular target: RAF1 (UniProt P04049)
[20] = molecular target: RAF1_S257L (clone: RAF1_mut) (UniProt P04049)

Measured: kinase-Nluc reporter destabilization hit call

FC(F)(F)c1ccc(CNc2ccc(Cc3c[nH]c4ncc(Cl)cc34)cn2)cn1 [Pexidartinib (hydrochloride)]
inactive: [1]; 10 µM 0 | [2]; 10 µM 0 | [3]; 10 µM 0 | [4]; 10 µM 0 | [5]; 10 µM 0 | [6]; 10 µM 0 | [7]; 10 µM 0 | [8]; 10 µM 0 | [9]; 10 µM 0 | [10]; 10 µM 0 | [11]; 10 µM 0 | [12]; 10 µM 0 | [13]; 10 µM 0 | [14]; 10 µM 0 | [15]; 10 µM 0 | [16]; 10 µM 0 | [17]; 10 µM 0 | [18]; 10 µM 0 | [19]; 10 µM 0 | [20]; 10 µM 0

Cn1cc(-c2cnc3ccc4ccc(CS(=O)(=O)NCc5ccccn5)cc4c(=O)c3c2)cn1
inactive: [1]; 10 µM 0 | [2]; 10 µM 0 | [3]; 10 µM 0 | [4]; 10 µM 0 | [5]; 10 µM 0 | [6]; 10 µM 0 | [7]; 10 µM 0 | [8]; 10 µM 0 | [9]; 10 µM 0 | [10]; 10 µM 0 | [11]; 10 µM 0 | [12]; 10 µM 0 | [13]; 10 µM 0 | [14]; 10 µM 0 | [15]; 10 µM 0 | [16]; 10 µM 0 | [17]; 10 µM 0 | [18]; 10 µM 0 | [19]; 10 µM 0 | [20]; 10 µM 0

Clc1ccc(C2(c3ccc(-c4cn[nH]c4)cc3)CCNCC2)cc1
inactive: [1]; 10 µM 0 | [2]; 10 µM 0 | [3]; 10 µM 0 | [4]; 10 µM 0 | [5]; 10 µM 0 | [6]; 10 µM 0 | [7]; 10 µM 0 | [8]; 10 µM 0 | [9]; 10 µM 0 | [10]; 10 µM 0 | [11]; 10 µM 0 | [12]; 10 µM 0 | [13]; 10 µM 0 | [14]; 10 µM 0 | [15]; 10 µM 0 | [16]; 10 µM 0 | [17]; 10 µM 0 | [18]; 10 µM 0 | [19]; 10 µM 0 | [20]; 10 µM 0

CC(C)Oc1ccc(-c2nn([C@@H](C)c3oc4ccc(F)cc4c(=O)c3-c3cccc(F)c3)c3ncnc(N)c23)cc1F [Umbralisib]
inactive: [1]; 2.5 µM 0 | [2]; 2.5 µM 0 | [3]; 2.5 µM 0 | [4]; 2.5 µM 0 | [5]; 2.5 µM 0 | [6]; 2.5 µM 0 | [7]; 2.5 µM 0 | [8]; 2.5 µM 0 | [9]; 2.5 µM 0 | [10]; 2.5 µM 0 | [11]; 2.5 µM 0 | [12]; 2.5 µM 0 | [13]; 2.5 µM 0 | [14]; 2.5 µM 0 | [15]; 2.5 µM 0 | [16]; 2.5 µM 0 | [17]; 2.5 µM 0 | [18]; 2.5 µM 0 | [19]; 2.5 µM 0 | [20]; 2.5 µM 0

In the list so far, 2 contain fluorine.
FC(F)(F)c1ccc(CNc2ccc(Cc3c[nH]c4ncc(Cl)cc34)cn2)cn1 [Pexidartinib (hydrochloride)]
inactive: [1]; 10 µM 0 | [2]; 10 µM 0 | [3]; 10 µM 0 | [4]; 10 µM 0 | [5]; 10 µM 0 | [6]; 10 µM 0 | [7]; 10 µM 0 | [8]; 10 µM 0 | [9]; 10 µM 0 | [10]; 10 µM 0 | [11]; 10 µM 0 | [12]; 10 µM 0 | [13]; 10 µM 0 | [14]; 10 µM 0 | [15]; 10 µM 0 | [16]; 10 µM 0 | [17]; 10 µM 0 | [18]; 10 µM 0 | [19]; 10 µM 0 | [20]; 10 µM 0

CC(C)Oc1ccc(-c2nn([C@@H](C)c3oc4ccc(F)cc4c(=O)c3-c3cccc(F)c3)c3ncnc(N)c23)cc1F [Umbralisib]
inactive: [1]; 2.5 µM 0 | [2]; 2.5 µM 0 | [3]; 2.5 µM 0 | [4]; 2.5 µM 0 | [5]; 2.5 µM 0 | [6]; 2.5 µM 0 | [7]; 2.5 µM 0 | [8]; 2.5 µM 0 | [9]; 2.5 µM 0 | [10]; 2.5 µM 0 | [11]; 2.5 µM 0 | [12]; 2.5 µM 0 | [13]; 2.5 µM 0 | [14]; 2.5 µM 0 | [15]; 2.5 µM 0 | [16]; 2.5 µM 0 | [17]; 2.5 µM 0 | [18]; 2.5 µM 0 | [19]; 2.5 µM 0 | [20]; 2.5 µM 0

The results go on.

c1cc(-c2cnn3cc(-c4ccc(OCCN5CCCCC5)cc4)cnc23)ccn1 [Dorsomorphin (dihydrochloride)]
inactive: [1]; 2.5 µM 0 | [2]; 2.5 µM 0 | [3]; 2.5 µM 0 | [4]; 2.5 µM 0 | [5]; 2.5 µM 0 | [6]; 2.5 µM 0 | [7]; 2.5 µM 0 | [8]; 2.5 µM 0 | [9]; 2.5 µM 0 | [10]; 2.5 µM 0 | [11]; 2.5 µM 0 | [12]; 2.5 µM 0 | [13]; 2.5 µM 0 | [14]; 2.5 µM 0 | [15]; 2.5 µM 0 | [16]; 2.5 µM 0 | [17]; 2.5 µM 0 | [18]; 2.5 µM 0 | [19]; 2.5 µM 0 | [20]; 2.5 µM 0

COc1cc2c(cc1OC)-c1c(C)c3ccc(OC)c(OC)c3c[n+]1CC2 [Dehydrocorydaline (chloride)]
inactive: [1]; 10 µM 0 | [2]; 10 µM 0 | [3]; 10 µM 0 | [4]; 10 µM 0 | [5]; 10 µM 0 | [6]; 10 µM 0 | [7]; 10 µM 0 | [8]; 10 µM 0 | [9]; 10 µM 0 | [10]; 10 µM 0 | [11]; 10 µM 0 | [12]; 10 µM 0 | [13]; 10 µM 0 | [14]; 10 µM 0 | [15]; 10 µM 0 | [16]; 10 µM 0 | [17]; 10 µM 0 | [18]; 10 µM 0 | [19]; 10 µM 0 | [20]; 10 µM 0

C=CC(=O)Nc1cc(Nc2nccc(-c3cn(C4CC4)c4ccccc34)n2)c(OC)cc1N(C)CCN(C)C [Almonertinib (hydrochloride)]
inactive: [1]; 2.5 µM 0 | [2]; 2.5 µM 0 | [3]; 2.5 µM 0 | [4]; 2.5 µM 0 | [5]; 2.5 µM 0 | [6]; 2.5 µM 0 | [7]; 2.5 µM 0 | [8]; 2.5 µM 0 | [9]; 2.5 µM 0 | [10]; 2.5 µM 0 | [11]; 2.5 µM 0 | [12]; 2.5 µM 0 | [13]; 2.5 µM 0 | [14]; 2.5 µM 0 | [15]; 2.5 µM 0 | [16]; 2.5 µM 0 | [17]; 2.5 µM 0 | [18]; 2.5 µM 0 | [19]; 2.5 µM 0 | [20]; 2.5 µM 0

CC(C)Nc1cc(-c2c[nH]c(C(=O)N[C@H](CO)c3cccc(Cl)c3)c2)c(Cl)cn1 [Ulixertinib]
inactive: [1]; 10 µM 0 | [2]; 10 µM 0 | [3]; 10 µM 0 | [4]; 10 µM 0 | [5]; 10 µM 0 | [6]; 10 µM 0 | [7]; 10 µM 0 | [8]; 10 µM 0 | [9]; 10 µM 0 | [10]; 10 µM 0 | [11]; 10 µM 0 | [12]; 10 µM 0 | [13]; 10 µM 0 | [14]; 10 µM 0 | [15]; 10 µM 0 | [16]; 10 µM 0 | [17]; 10 µM 0 | [18]; 10 µM 0 | [19]; 10 µM 0 | [20]; 10 µM 0

COCCOc1cc(F)c2c(Nc3ccc(NC(=O)Cn4cc(C(C)C)nn4)cc3)ncnc2c1 [AZD3229 Tosylate]
inactive: [1]; 10 µM 0 | [2]; 10 µM 0 | [3]; 10 µM 0 | [4]; 10 µM 0 | [5]; 10 µM 0 | [6]; 10 µM 0 | [7]; 10 µM 0 | [8]; 10 µM 0 | [9]; 10 µM 0 | [10]; 10 µM 0 | [11]; 10 µM 0 | [12]; 10 µM 0 | [13]; 10 µM 0 | [14]; 10 µM 0 | [15]; 10 µM 0 | [16]; 10 µM 0 | [17]; 10 µM 0 | [18]; 10 µM 0 | [19]; 10 µM 0 | [20]; 10 µM 0
